In patent US20030166009A1 (MERCK, published 2003) one finds binding data, which are given here for two molecules.

Chains of the proteins cited; added tags and fusions are not shown. Lines headed by an entry give the natural chain unless they say otherwise; changes in a name come on top.
UniProt P01189: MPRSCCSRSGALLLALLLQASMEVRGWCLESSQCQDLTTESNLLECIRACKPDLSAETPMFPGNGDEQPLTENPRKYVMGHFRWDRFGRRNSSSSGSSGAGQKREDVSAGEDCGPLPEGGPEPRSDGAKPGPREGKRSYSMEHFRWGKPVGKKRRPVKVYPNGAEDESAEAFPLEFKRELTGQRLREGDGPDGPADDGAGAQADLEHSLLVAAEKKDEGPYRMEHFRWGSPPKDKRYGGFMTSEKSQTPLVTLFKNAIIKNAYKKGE

In this experiment the target is rhesus melanocortin-4 receptor protein (rhesus monkey (Macaca mulatta)). As to the kind of experiment: competitive radioligand binding on crude membranes, rank order of potency.

Results are given in words; binding and its absence hold for the method and conditions named. Some results given as binding are weak or reduced against the parent protein; the word gives no strength. Where no end group is shown, it is not given here.

B1: Beta MSH (peptide, UniProt P01189 217-234, looked up)
peptide: DEGPYRMEHFRWGSPPKD
notes: domain: beta MSH; The peptide is only a part of it; also called β-MSH
As to B1, the binding entry is on record as “binds”.

B2: Gamma MSH (peptide, UniProt P01189 77-87, looked up)
peptide: YVMGHFRWDRF
modifications: ends and bridges not checked
notes: domain: gamma MSH; The peptide is only a part of it; also called γ-MSH
B2: the binding result was “binds”.
